Assay results from PubChem BioAssay AID1347423 (Functional Genomics Laboratory (NCATS/FGL), 2020).
Among all 52,000 sequences or so, about 210 (0.4%) were called active.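 How the source made its calls: active means gene whose silencing raises cell survival under the drug, median off-target-corrected z-score across its silencing RNAs 2 or more; inactive means the rest.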 Some of the results follow.

Assay: Resistance to Poly (ADP-Ribose) Polymerase inhibitor: Gene Identification via Genome-wide siRNA Screen
Conditions: mouse BRCA2 R2336H ES cells, olaparib, CellTiter-Glo viability; hits give high values
Summary of the method: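 Genome-wide siRNA screen (3 siRNAs/gene, 20 nM) in mouse ES cells carrying hypomorphic BRCA2 R2336H; olaparib 500 nM added 48 h post-transfection, CellTiter-Glo viability 72 h later. Normalized to plate-median negative control; MAD z-scores, gene median, seed-adjusted.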

Sequence | z-score
GGAGUGCAACAAGAAGUUCTT against Klf13 | inactive: 0.175
GGAACUUGAUCAAGAAAAUTT against Matr3 | inactive: 0.635
GGUUAUGUGUUCCAUAGAUTT against Pcdhb13 | inactive: 1.82
GGAGAAAAUUUUCACCACUTT against Slc25a24 | inactive: 0.944
GGUUCUGACCCUUGGUUAUTT against V1rh14 | inactive: 0.0393
GCAAUGGAACCACCUCUGATT against Zic5 | inactive: 1
GCUGAACAUUAGCUUCAAUTT against 4921529O18Rik | inactive: 0.269
GGCGUGUCUUGAUAGAAAUTT against Mtl5 | inactive: -0.176
GGAUAAUGUUGUCUGUCUATT against C87860 | inactive: -1.24
GCGACACAUUCGAUCUCAGTT against Evi1 | inactive: 0.291
CCACAUGUCCAAUCAGAAUTT against Eef2k | inactive: 0.207
GGUUGUCUUUCUACUCGGGTT against Ppap2a | inactive: -0.759
CCUAGGUGUCGUACACAAATT against Galns | inactive: -0.335
UAAAUGAGCUCGUAAUCUUTT against Olfr874 | inactive: 1.03
GGAGGUAGAGAUGUCCACCTT against Serpinb6b | inactive: -0.783
GUACUACAUGGAUCUCAAGTT against Pura | inactive: 1.31
CGUUAGCAGGCAACAAAUCTT against Cyp2d13 | inactive: -2.18
GGAACAGUUCCUUGUGGUUTT against Uqcrh | inactive: -0.125
GCACUUCUCAGUCUAUAACTT against Gm773 | inactive: -0.386
CCGAUUCGUUGGUAUUAACTT against Zadh2 | inactive: -0.633
CGUACCACACGAUGAAUAGTT against Pou4f1 | inactive: -0.913
GCAGUUCUGAAUCAUUAAGTT against Pot1 | inactive: 1.08
CGAAGAUUACCUUUCAAGATT against Siat7c | inactive: 0.328
CCCAGUGUACUUGUCAUUUTT against Rhob | inactive: 0.0878
GCCUUGAACUAUGCAUAGATT against Eno2 | inactive: -1.39
CCUCUUAGCUAGAUCUUACTT against Smu1 | inactive: -2.99

Sequence | z-score
GCCAGUGUGUAUCAAAAAATT against 1110011K10Rik | inactive: 0.869
GGGCUACGAUGUGGAGUUUTT against Traf6 | inactive: 0.723
GCAGCUACUGUGUUACAAATT against AI173486 | inactive: 1.04
CCGAGACAUAAAUUUUCCATT against C330003B14Rik | inactive: 1.25
GCUCCACUGAUACUGUUGUTT against Cyp4a10 | inactive: 0.424
CCCAAUAAUGAGAAGCGGCTT against Sh2d1c | inactive: 0.997
GGAAAGUUCCAAGUUACCATT against C530009C10Rik | inactive: -0.495
GUGAUAAACCUGGGACACATT against Lyl1 | inactive: -0.88
GGACCUUCUUCUGUCCCUUTT against C130022P09Rik | inactive: -2.07
GGUGUGUUAAGGUUUUUAATT against 2900024D24Rik | inactive: 0.679
CCUCUAAAUAGAGGAUAAGTT against Zfp467 | inactive: 1.19
GCCUCUCGUGAAGAACAUATT against Cdkl1 | inactive: -0.131
CCAAAAACUGGGAGUUCGUTT against Olfr513 | inactive: 0.713
GGCUAUUUAUUGCAUUCUCTT against 4933416E05Rik | inactive: -0.152
GGGAAGGACCUCAUUCAACTT against Butr1 | inactive: 0.11
GGACAUUUCCUCGCUUGACTT against L3mbtl2 | inactive: -1.16
GGACGUACAUGAUGAUGUUTT against A930008A22Rik | inactive: -2.54
CAGGCUGGUUACUUUGGCUTT against Tmhs | inactive: -2.19
GGUGGUUUUUUGUUGUUGUTT against B230384L07 | inactive: -0.53
GGAGCUGUACGGCAAGAUCTT against Rgs19ip1 | inactive: -1.08
GGAGUUUCUCAGUGAAGGATT against Traf4 | inactive: -2.22
CGUGAAGAUUCUUAAGGCGTT against Ppil1 | inactive: 1.52
GGUGUAUUAAAAUGUCAGUTT against Marveld2 | inactive: 1.48
GGCUUUACUUCUUGCUGUGTT against Olfr1412 | inactive: -1.06
GGAAUAUAUCUCCAAACAGTT against 1700008F21Rik | inactive: -0.104
GCUACAAACAACAAGUGACTT against 2210408I21Rik | inactive: -0.564

Part of the list above, in markdown:

| Sequence | z-score |
| --- | --- |
| CCUCUAAAUAGAGGAUAAGTT against Zfp467 | inactive: 1.19 |
| GCCUCUCGUGAAGAACAUATT against Cdkl1 | inactive: -0.131 |
| CCAAAAACUGGGAGUUCGUTT against Olfr513 | inactive: 0.713 |
| GGCUAUUUAUUGCAUUCUCTT against 4933416E05Rik | inactive: -0.152 |
| GGGAAGGACCUCAUUCAACTT against Butr1 | inactive: 0.11 |
| GGACAUUUCCUCGCUUGACTT against L3mbtl2 | inactive: -1.16 |
| GGACGUACAUGAUGAUGUUTT against A930008A22Rik | inactive: -2.54 |
| CAGGCUGGUUACUUUGGCUTT against Tmhs | inactive: -2.19 |
| GGUGGUUUUUUGUUGUUGUTT against B230384L07 | inactive: -0.53 |
| GGAGCUGUACGGCAAGAUCTT against Rgs19ip1 | inactive: -1.08 |
| GGAGUUUCUCAGUGAAGGATT against Traf4 | inactive: -2.22 |
| CGUGAAGAUUCUUAAGGCGTT against Ppil1 | inactive: 1.52 |
| GGUGUAUUAAAAUGUCAGUTT against Marveld2 | inactive: 1.48 |
| GGCUUUACUUCUUGCUGUGTT against Olfr1412 | inactive: -1.06 |
| GGAAUAUAUCUCCAAACAGTT against 1700008F21Rik | inactive: -0.104 |
| GCUACAAACAACAAGUGACTT against 2210408I21Rik | inactive: -0.564 |
